Measurements as given in paper PMC8828655.
These are yes or no findings as the source states them, for the method shown. Binding seen in cells or lysates may run through a third protein. Some entries that bind do so weakly or less than the wild type. For some assays here: Tags and fused reporters may be left off the sequences shown.

The chains behind the UniProt entries cited, without tags or fusion partners. Residues count along the entry.
UniProt Q9NZQ7, residues 19-290: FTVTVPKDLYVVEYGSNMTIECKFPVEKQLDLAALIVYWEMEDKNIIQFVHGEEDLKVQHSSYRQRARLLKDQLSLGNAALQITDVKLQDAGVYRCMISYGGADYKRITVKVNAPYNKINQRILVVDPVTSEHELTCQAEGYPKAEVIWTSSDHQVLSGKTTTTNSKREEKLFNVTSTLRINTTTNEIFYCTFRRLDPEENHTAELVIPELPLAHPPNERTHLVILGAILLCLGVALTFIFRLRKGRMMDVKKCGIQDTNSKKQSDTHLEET

Tests used:
[1] = target: T1, HA-Siah2 (UniProt O43255); assay: co-IP; CCA cells transfected with HA-Siah2 and Flag-PD-L1 for 36 h; immunoprecipitation with anti-HA, analysed by immunoblotting
T1 sequence: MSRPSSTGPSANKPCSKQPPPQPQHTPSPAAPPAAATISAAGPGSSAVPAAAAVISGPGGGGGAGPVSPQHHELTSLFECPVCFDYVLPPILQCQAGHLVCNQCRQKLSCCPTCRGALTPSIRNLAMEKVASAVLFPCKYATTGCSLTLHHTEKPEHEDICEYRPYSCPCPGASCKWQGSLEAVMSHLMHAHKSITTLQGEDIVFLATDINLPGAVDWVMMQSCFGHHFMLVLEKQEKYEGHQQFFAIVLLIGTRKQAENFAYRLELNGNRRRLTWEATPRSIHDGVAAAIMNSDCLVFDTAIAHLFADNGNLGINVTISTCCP

[2] = target: T2, seven in absentia homolog 2 (Siah2), endogenous (human (endogenous in CCA cells)) (UniProt O43255); assay: co-IP; immunoprecipitation with anti-Siah2 from CCA cells, analysed by immunoblotting; the text calls it endogenous
T2 sequence: T1 sequence

| binding [1] | Substance | binding [2] |
| --- | --- | --- |
| binds | Flag-PD-L1 (from UniProt Q9NZQ7 19-290) | – |
| – | Programmed death ligand 1 (PD-L1), endogenous (from UniProt Q9NZQ7 19-290) | binds |
